In paper PMC7948466:
The exact form of at least one protein or probe is not confirmed. For some assays here: At least one verdict was read from the data and is not stated in words by the source.

Experiments:
[1] = biological target: DNMT3A full length (Homo sapiens) (UniProt Q9Y6K1); experiment: fluorescence anisotropy; settings: DNMT3A titrated to 15 nM DNA, no mononucleosomes; Fluorescence anisotropy (ex 485 nm, em 520 nm), 5 min incubation at room temperature; binding buffer; recombinant protein; residues 1-912; label: 5' 6-FAM on top strand
[2] = tested on: DNMT3A full length + human mononucleosome (unmodified); experiment: fluorescence anisotropy; settings: preformed DNMT3A-mononucleosome complex titrated to 15 nM DNA, larger FA change than DNMT3A only; Fluorescence anisotropy (ex 485 nm, em 520 nm), 5 min incubation at room temperature; binding buffer; recombinant protein; label: 5' 6-FAM on top strand

TGGATATCTAGGGGCGCTATGATATCT (double strand) [GCbox30]
binding result [1]: binds
binding result [2]: binds
